# Values from PubChem BioAssay AID1159601 (NIAID, 2016).
# Test: 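Which toll-like receptor pathway genes are needed for TNF promoter activation by Pam3CSK4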 (primary screen)
# System: human THP-1 reporter cells differentiated with PMA into macrophage-like cells
# Knock-down reagent: single siRNA against human genes
# Duration: ligand added 4 hours before read-out; cells assayed 48 to 72 hours after siRNA transfection
# Conditions: Pam3CSK4 (TLR2 ligand) for 4 hours; dose not given
# Read-out: 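TNF promoter dual-luciferase ratio measured 4 h after Pam3CSK4, converted to robust z-scores against negative controls and averaged across replicates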
# Direction: TNF reporter z-score: higher = stronger TNF promoter reporter activity
# Active means: 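Grade increases with absolute z-score, cut points 1, 1.5, 2 and 2.5, both signs; rows called active have z near or beyond ±1.5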
# Meaning of the calls: active = clear change (up or down); inactive = little change
# Shown is one part, drawn at random, of 756 deposited reagents. In the full data, 143 (19%) were called active. 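Calls include both lowered and raised reporter signal; each row is a single siRNA, not a gene summary; Pam3CSK4 dose not stated.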 A number with no mark means an inactive call. Reagents against one gene are numbered here. No sequences are given here. Not given: the amount of reagent.
gene,reagent,"TNF reporter z-score, replicate mean"
MAP2K2 (mitogen-activated protein kinase kinase 2),1,-0.835
MAP2K2 (mitogen-activated protein kinase kinase 2),2,-0.334
MAP2K2 (mitogen-activated protein kinase kinase 2),3,-1.68 (active)
MAP2K2 (mitogen-activated protein kinase kinase 2),4,0.425
MAP2K2 (mitogen-activated protein kinase kinase 2),5,0.563
MAP2K2 (mitogen-activated protein kinase kinase 2),6,-0.715
NFKBIA (NFKB inhibitor alpha),1,-1.38
NFKBIA (NFKB inhibitor alpha),2,0.236
NFKBIA (NFKB inhibitor alpha),3,0.248
NFKBIA (NFKB inhibitor alpha),4,-0.936
NFKBIA (NFKB inhibitor alpha),5,-0.625
NFKBIA (NFKB inhibitor alpha),6,-0.0706
CHUK,1,-0.652
CHUK,2,-0.766
CHUK,3,-0.849
CHUK,4,-0.625
CHUK,5,-0.557
CHUK,6,0.363
MAPK8 (mitogen-activated protein kinase 8),1,0.88
MAPK8 (mitogen-activated protein kinase 8),2,-1.59 (active)
MAPK8 (mitogen-activated protein kinase 8),3,0.00213
MAPK8 (mitogen-activated protein kinase 8),4,-0.00488
MAPK8 (mitogen-activated protein kinase 8),5,-0.771
MAPK8 (mitogen-activated protein kinase 8),6,0.439
EGR1 (early growth response 1),1,-2.72 (active)
EGR1 (early growth response 1),2,-2.35 (active)
EGR1 (early growth response 1),3,-2.18 (active)
EGR1 (early growth response 1),4,-1.23
EGR1 (early growth response 1),5,-0.505
EGR1 (early growth response 1),6,0.719
MAP2K1 (mitogen-activated protein kinase kinase 1),1,-0.662
MAP2K1 (mitogen-activated protein kinase kinase 1),2,-0.662
MAP2K1 (mitogen-activated protein kinase kinase 1),3,-1.49
MAP2K1 (mitogen-activated protein kinase kinase 1),4,-0.25
MAP2K1 (mitogen-activated protein kinase kinase 1),5,-0.141
MAP2K1 (mitogen-activated protein kinase kinase 1),6,0.182
"FOS (Fos proto-oncogene, AP-1 transcription factor subunit)",1,-0.605
"FOS (Fos proto-oncogene, AP-1 transcription factor subunit)",2,-0.792
"FOS (Fos proto-oncogene, AP-1 transcription factor subunit)",3,1.12
"FOS (Fos proto-oncogene, AP-1 transcription factor subunit)",4,-0.635
"FOS (Fos proto-oncogene, AP-1 transcription factor subunit)",5,-0.427
"FOS (Fos proto-oncogene, AP-1 transcription factor subunit)",6,1.51 (active)
PIK3R5 (phosphoinositide-3-kinase regulatory subunit 5),1,-0.862
PIK3R5 (phosphoinositide-3-kinase regulatory subunit 5),2,-0.751
PIK3R5 (phosphoinositide-3-kinase regulatory subunit 5),3,0.894
PIK3R5 (phosphoinositide-3-kinase regulatory subunit 5),4,-0.853
PIK3R5 (phosphoinositide-3-kinase regulatory subunit 5),5,0.571
PIK3R5 (phosphoinositide-3-kinase regulatory subunit 5),6,-1.06
NFKBIE (NFKB inhibitor epsilon),1,-0.72
NFKBIE (NFKB inhibitor epsilon),2,-1.3
NFKBIE (NFKB inhibitor epsilon),3,-1.25
NFKBIE (NFKB inhibitor epsilon),4,-1.21
NFKBIE (NFKB inhibitor epsilon),5,-1.55 (active)
NFKBIE (NFKB inhibitor epsilon),6,-2.06 (active)
TLR2 (toll like receptor 2),1,1.51 (active)
TLR2 (toll like receptor 2),2,-1.14
TLR2 (toll like receptor 2),3,-1.51 (active)
TLR2 (toll like receptor 2),4,0.68
TLR2 (toll like receptor 2),5,-0.878
TLR2 (toll like receptor 2),6,-0.618
IKBKB (inhibitor of nuclear factor kappa B kinase subunit beta),1,0.798
IKBKB (inhibitor of nuclear factor kappa B kinase subunit beta),2,-0.578
IKBKB (inhibitor of nuclear factor kappa B kinase subunit beta),3,-0.242
IKBKB (inhibitor of nuclear factor kappa B kinase subunit beta),4,-0.122
IKBKB (inhibitor of nuclear factor kappa B kinase subunit beta),5,0.352
IKBKB (inhibitor of nuclear factor kappa B kinase subunit beta),6,0.285
PIK3CB,1,-0.121
PIK3CB,2,-1.56 (active)
PIK3CB,3,-0.921
PIK3CB,4,0.346
PIK3CB,5,0.763
PIK3CB,6,-0.0678
CASP8 (caspase 8),1,-0.392
CASP8 (caspase 8),2,-0.304
CASP8 (caspase 8),3,0.655
CASP8 (caspase 8),4,-0.6
CASP8 (caspase 8),5,-0.31
CASP8 (caspase 8),6,-0.904
EGR2 (early growth response 2),1,-1.44
EGR2 (early growth response 2),2,-1.25
EGR2 (early growth response 2),3,-1.69 (active)
EGR2 (early growth response 2),4,-1.41
EGR2 (early growth response 2),5,-0.823
EGR2 (early growth response 2),6,-3.51 (active)

Active calls (from the list above):
gene,reagent,"TNF reporter z-score, replicate mean"
MAP2K2 (mitogen-activated protein kinase kinase 2),3,-1.68 (active)
MAPK8 (mitogen-activated protein kinase 8),2,-1.59 (active)
EGR1 (early growth response 1),1,-2.72 (active)
EGR1 (early growth response 1),2,-2.35 (active)
EGR1 (early growth response 1),3,-2.18 (active)
"FOS (Fos proto-oncogene, AP-1 transcription factor subunit)",6,1.51 (active)
NFKBIE (NFKB inhibitor epsilon),5,-1.55 (active)
NFKBIE (NFKB inhibitor epsilon),6,-2.06 (active)
TLR2 (toll like receptor 2),1,1.51 (active)
TLR2 (toll like receptor 2),3,-1.51 (active)
PIK3CB,2,-1.56 (active)
EGR2 (early growth response 2),3,-1.69 (active)
EGR2 (early growth response 2),6,-3.51 (active)
